B1: Diablo homolog, mitochondrial (protein, UniProt Q9NR28 22-239, looked up)
Diablo IAP-binding …: LCVPVVANFKKRCFSELIRPWHKTVTIGFGVTLCAVPIAQKSEPHSLSSEALMRRAVSLVTDSTSTFLSQTTYALIEAITEYTKAVYTLTSLYRQYTSLLGKMNSEEEDEVWQVIIGARAEMTSKHQEYLKLETTWMTAVGLSEMAAEAAYQTGADQASITARNHIQLVKLQVEEVHQLSRKAETKLAEAQIEELRQKTQEEGEERAESEQEAYLRED
B2: DNA topoisomerase 1 (protein, UniProt P11387 2-765, looked up)
DNA topoisomerase 1: SGDHLHNDSQIEADFRLNDSHKHKDKHKDREHRHKEHKKEKDREKSKHSNSEHKDSEKKHKEKEKTKHKDGSSEKHKDKHKDRDKEKRKEEKVRASGDAKIKKEKENGFSSPPQIKDEPEDDGYFVPPKEDIKPLKRPRDEDDADYKPKKIKTEDTKKEKKRKLEEEEDGKLKKPKNKDKDKKVPEPDNKKKKPKKEEEQKWKWWEEERYPEGIKWKFLEHKGPVFAPPYEPLPENVKFYYDGKVMKLSPKAEEVATFFAKMLDHEYTTKEIFRKNFFKDWRKEMTNEEKNIITNLSKCDFTQMSQYFKAQTEARKQMSKEEKLKIKEENEKLLKEYGFCIMDNHKERIANFKIEPPGLFRGRGNHPKMGMLKRRIMPEDIIINCSKDAKVPSPPPGHKWKEVRHDNKVTWLVSWTENIQGSIKYIMLNPSSRIKGEKDWQKYETARRLKKCVDKIRNQYREDWKSKEMKVRQRAVALYFIDKLALRAGNEKEEGETADTVGCCSLRVEHINLHPELDGQEYVVEFDFLGKDSIRYYNKVPVEKRVFKNLQLFMENKQPEDDLFDRLNTGILNKHLQDLMEGLTAKVFRTYNASITLQQQLKELTAPDENIPAKILSYNRANRAVAILCNHQRAPPKTFEKSMMNLQTKIDAKKEQLADARRDLKSAKADAKVMKDAKTKKVVESKKKAVQRLEEQLMKLEVQATDREENKQIALGTSKLNYLDPRITVAWCKKWGVPIEKIYNKTQREKFAWAIDMADEDYEF
B3: Dual specificity mitogen-activated protein kinase kinase 4 (protein, UniProt P45985 2-399, looked up)
Dual specificity …: AAPSPSGGGGSGGGSGSGTPGPVGSPAPGHPAVSSMQGKRKALKLNFANPPFKSTARFTLNPNPTGVQNPHIERLRTHSIESSGKLKISPEQHWDFTAEDLKDLGEIGRGAYGSVNKMVHKPSGQIMAVKRIRSTVDEKEQKQLLMDLDVVMRSSDCPYIVQFYGALFREGDCWICMELMSTSFDKFYKYVYSVLDDVIPEEILGKITLATVKALNHLKENLKIIHRDIKPSNILLDRSGNIKLCDFGISGQLVDSIAKTRDAGCRPYMAPERIDPSASRQGYDVRSDVWSLGITLYELATGRFPYPKWNSVFDQLTQVVKGDPPQLSNSEEREFSPSFINFVNLCLTKDESKRPKYKELLKHPFILMYEERAVEVACYVCKILDQMPATPSSPMYVD
B4: Disintegrin and metalloproteinase domain-containing protein 9 (protein, UniProt Q13443 29-819, looked up)
Disintegrin and …: AARPGFQQTSHLSSYEIITPWRLTRERREAPRPYSKQVSYVIQAEGKEHIIHLERNKDLLPEDFVVYTYNKEGTLITDHPNIQNHCHYRGYVEGVHNSSIALSDCFGLRGLLHLENASYGIEPLQNSSHFEHIIYRMDDVYKEPLKCGVSNKDIEKETAKDEEEEPPSMTQLLRRRRAVLPQTRYVELFIVVDKERYDMMGRNQTAVREEMILLANYLDSMYIMLNIRIVLVGLEIWTNGNLINIVGGAGDVLGNFVQWREKFLITRRRHDSAQLVLKKGFGGTAGMAFVGTVCSRSHAGGINVFGQITVETFASIVAHELGHNLGMNHDDGRDCSCGAKSCIMNSGASGSRNFSSCSAEDFEKLTLNKGGNCLLNIPKPDEAYSAPSCGNKLVDAGEECDCGTPKECELDPCCEGSTCKLKSFAECAYGDCCKDCRFLPGGTLCRGKTSECDVPEYCNGSSQFCQPDVFIQNGYPCQNNKAYCYNGMCQYYDAQCQVIFGSKAKAAPKDCFIEVNSKGDRFGNCGFSGNEYKKCATGNALCGKLQCENVQEIPVFGIVPAIIQTPSRGTKCWGVDFQLGSDVPDPGMVNEGTKCGAGKICRNFQCVDASVLNYDCDVQKKCHGHGVCNSNKNCHCENGWAPPNCETKGYGGSVDSGPTYNEMNTALRDGLLVFFFLIVPLIVCAIFIFIKRDQLWRSYFRKKRSQTYESDGKNQANPSRQPGSVPRHVSPVTPPREVPIYANRFAVPTYAAKQPQQFPSRPPPPQPKVSSQGNLIPARPAPAPPLYSSLT
B5: Desmocollin-3 (protein, UniProt Q14574 136-896, looked up)
Desmocollin-3: RWAPIPCSMQENSLGPFPLFLQQVESDAAQNYTVFYSISGRGVDKEPLNLFYIERDTGNLFCTRPVDREEYDVFDLIAYASTADGYSADLPLPLPIRVEDENDNHPVFTEAIYNFEVLESSRPGTTVGVVCATDRDEPDTMHTRLKYSILQQTPRSPGLFSVHPSTGVITTVSHYLDREVVDKYSLIMKVQDMDGQFFGLIGTSTCIITVTDSNDNAPTFRQNAYEAFVEENAFNVEILRIPIEDKDLINTANWRVNFTILKGNENGHFKISTDKETNEGVLSVVKPLNYEENRQVNLEIGVNNEAPFARDIPRVTALNRALVTVHVRDLDEGPECTPAAQYVRIKENLAVGSKINGYKAYDPENRNGNGLRYKKLHDPKGWITIDEISGSIITSKILDREVETPKNELYNITVLAIDKDDRSCTGTLAVNIEDVNDNPPEILQEYVVICKPKMGYTDILAVDPDEPVHGAPFYFSLPNTSPEISRLWSLTKVNDTAARLSYQKNAGFQEYTIPITVKDRAGQAATKLLRVNLCECTHPTQCRATSRSTGVILGKWAILAILLGIALLFSVLLTLVCGVFGATKGKRFPEDLAQQNLIISNTEAPGDDRVCSANGFMTQTTNNSSQGFCGTMGSGMKNGGQETIEMMKGGNQTLESCRGAGHHHTLDSCRGGHTEVDNCRYTYSEWHSFTQPRLGEKLHRCNQNEDRMPSQDYVLTYNYEGRGSPAGSVGCCSEKQEEDGLDFLNNLEPKFITLAEACTKR
B6: Cystatin-M (protein, UniProt Q15828 29-149, looked up)
Cystatin-M: RPQERMVGELRDLSPDDPQVQKAAQAAVASYNMGSNSIYYFRDTHIIKAQSQLVAGIKYFLTMEMGSTDCRKTRVTGDHVDLTTCPLAAGAQQEKLRCDFEVLVVPWQNSSQLLKHNCVQM
B7: Cytoskeleton-associated protein 2 (protein, UniProt Q8WWK9 1-683, looked up)
Cytoskeleton-associated …: MSTPAVPQDLQLPPSQRAQSAFKEQRRQKLKEHLLRRKTLFAYKQENEMLSSSRDQRVVTSEDQVQEGTKVLKLKTKMADKENMKRPAESKNNTVVGKHCIPLKPSNELTNSTVVIDTHKPKDSNQTPHLLLTEDDPQSQHMTLSQAFHLKNNSKKKQMTTEKQKQDANMPKKPVLGSYRGQIVQSKINSFRKPLQVKDESSAATKKLSATIPKATKPQPVNTSSVTVKSNRSSNMTATTKFVSTTSQNTQLVRPPIRSHHSNTRDTVKQGISRTSANVTIRKGPHEKELLQSKTALSSVKTSSSQGIIRNKTLSRSIASEVIARPASLSNDKLMEKSEPVDQRRHTAGKAIVDSRSAQPKETSEERKARLSEWKAGKGRVLKRPPNSVVTQHEPAGQNEKPVGSFWTTMAEEDEQRLFTEKVNNTFSECLNLINEGCPKEDILVTLNDLIKNIPDAKKLVKYWICLALIEPITSPIENIIAIYEKAILAGAQPIEEMRHTIVDILTMKSQEKANLGENMEKSCASKEEVKEVSIEDTGVDVDPEKLEMESKLHRNLLFQDCEKEQDNKTKDPTHDVKTPNTETRTSCLIKYNVSTTPYLQSVKKKVQFDGTNSAFKELKFLTPVRRSRRLQEKTSKLPDMLKDHYPCVSSLEQLTELGRETDAFVCRPNAALCRVYYEADTT
B8: Desmoglein-1 (protein, UniProt Q02413 50-1049, looked up)
Desmoglein-1: EWIKFAAACREGEDNSKRNPIAKIHSDCAANQQVTYRISGVGIDQPPYGIFVINQKTGEINITSIVDREVTPFFIIYCRALNSMGQDLERPLELRVRVLDINDNPPVFSMATFAGQIEENSNANTLVMILNATDADEPNNLNSKIAFKIIRQEPSDSPMFIINRNTGEIRTMNNFLDREQYGQYALAVRGSDRDGGADGMSAECECNIKILDVNDNIPYMEQSSYTIEIQENTLNSNLLEIRVIDLDEEFSANWMAVIFFISGNEGNWFEIEMNERTNVGILKVVKPLDYEAMQSLQLSIGVRNKAEFHHSIMSQYKLKASAISVTVLNVIEGPVFRPGSKTYVVTGNMGSNDKVGDFVATDLDTGRPSTTVRYVMGNNPADLLAVDSRTGKLTLKNKVTKEQYNMLGGKYQGTILSIDDNLQRTCTGTININIQSFGNDDRTNTEPNTKITTNTGRQESTSSTNYDTSTTSTDSSQVYSSEPGNGAKDLLSDNVHFGPAGIGLLIMGFLVLGLVPFLMICCDCGGAPRSAAGFEPVPECSDGAIHSWAVEGPQPEPRDITTVIPQIPPDNANIIECIDNSGVYTNEYGGREMQDLGGGERMTGFELTEGVKTSGMPEICQEYSGTLRRNSMRECREGGLNMNFMESYFCQKAYAYADEDEGRPSNDCLLIYDIEGVGSPAGSVGCCSFIGEDLDDSFLDTLGPKFKKLADISLGKESYPDLDPSWPPQSTEPVCLPQETEPVVSGHPPISPHFGTTTVISESTYPSGPGVLHPKPILDPLGYGNVTVTESYTTSDTLKPSVHVHDNRPASNVVVTERVVGPISGADLHGMLEMPDLRDGSNVIVTERVIAPSSSLPTSLTIHHPRESSNVVVTERVIQPTSGMIGSLSMHPELANAHNVIVTERVVSGAGVTGISGTTGISGGIGSSGLVGTSMGAGSGALSGAGISGGGIGLSSLGGTASIGHMRSSSDHHFNQTIGSASPSTARSRITKYSTVQYSK

System: proteins in oral lavage
Assay: Abundance of proteins in human oral lavage (SomaLogic), TABLE 1
Assay type: in vivo
Conditions: for Means (Original Scale) High bleeder BL / Means (Original Scale) High bleeder W4 / Means (Original Scale) Low bleeder BL: abundance in oral lavage; for Means (Original Scale) High bleeder BL: high bleeders (gingivitis); for Means (Original Scale) High bleeder BL / Means (Original Scale) Low bleeder BL: baseline; for Means (Original Scale) High bleeder W4 / Fold Change High bleeder W4 vs High bleeder BL: high bleeders; for Means (Original Scale) High bleeder W4: week 4 of investigative products; for Means (Original Scale) Low bleeder BL: low bleeders (healthy); for Fold Change High bleeder BL vs Low bleeder BL / Fold Change High bleeder W4 vs High bleeder BL: oral lavage; for Fold Change High bleeder BL vs Low bleeder BL: high bleeders vs low bleeders at baseline; for Fold Change High bleeder W4 vs High bleeder BL: week 4 of investigative products vs baseline

Molecule	Means (Original Scale) High bleeder BL	Means (Original Scale) High bleeder W4	Means (Original Scale) Low bleeder BL	Fold Change High bleeder BL vs Low bleeder BL	Fold Change High bleeder W4 vs High bleeder BL
B1	1487	827	366	3.96	0.60
B2	399	193	79	4.09	0.59
B3	244	158	100	2.18	0.70
B4	768	530	113	6.05	0.74
B5	752	317	201	2.67	0.53
B6	17308	8283	6730	2.72	0.50
B7	5329	3399	1303	3.90	0.68
B8	12244	4796	3634	3.45	0.44
